# PubChem BioAssay AID504764 – Drosophila RNAi Screening Center | 2011
# Aim: 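Genome-wide screen for regulators of Notch-driven gene expression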 (primary screen)
# Cell system: Drosophila Kc167 cells
# Knock-down reagent: long dsRNA against Drosophila genes
# Duration: about 5 days (4 days dsRNA, then 24 h after transfection)
# Challenge: transfection of constitutively active membrane-tethered Notch lacking the extracellular domain, read 24 h later
# Detection: 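Firefly luciferase from an E(spl)m3 reporter with active Notch, plus control-promoter and uninduced reporter wells for normalisation; unnormalised counts, duplicate wells a and b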
# Scale: induced reporter light, run 1, well a and induced reporter light, run 1, well b: higher = more light from the Notch target reporter with active Notch; control promoter light, run 1, well a and control promoter light, run 1, well b: higher = more light from the viral control promoter (cell number, transfection, viability); uninduced reporter light, run 1, well a: higher = more light from the Notch target reporter without active Notch
# Active means: 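Wells with low control signal or poorly matching duplicates excluded; duplicates averaged; per source plate, z beyond ±2 for induced/control log2 ratio or beyond ±1.8 for induced/uninduced marks a hit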
# Meaning of the calls: active = modifier hit (raised or lowered Notch signal); inactive = not a hit
# The screen tested about 22,000 reagents; this is a random part of those that have a named target and a result. In the full data, 403 (1.9%) got an active call. 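Unnormalised raw counts per well; ratio z-scores behind the hit calls and whether each hit raises or lowers signal are not deposited.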 A plus sign joins genes that one reagent is predicted to hit. No sequences are given here. Not given: the amount of reagent.
The opening 5 entries, ahead of the listing:
predicted target,dsRNA,"induced reporter light, run 1, well a","induced reporter light, run 1, well b","control promoter light, run 1, well a","control promoter light, run 1, well b","uninduced reporter light, run 1, well a",outcome
Cpsf5,DRSC10374,98980,96365,59730,36535,7670,inactive
Rab27,DRSC18567,1.87e5,1.81e5,2.48e5,2.71e5,13410,inactive
ATPsynE,DRSC15476,1.15e5,1.27e5,72200,65280,7610,inactive
CG14326,DRSC14805,2.16e5,2.10e5,2.26e5,2.47e5,17265,inactive
SPE,DRSC15135,1.63e5,1.91e5,2.48e5,2.22e5,17035,inactive

The list itself, from the first entry:
predicted target,dsRNA,"induced reporter light, run 1, well a","induced reporter light, run 1, well b","control promoter light, run 1, well a","control promoter light, run 1, well b","uninduced reporter light, run 1, well a",outcome
Cpsf5,DRSC10374,98980,96365,59730,36535,7670,inactive
Rab27,DRSC18567,1.87e5,1.81e5,2.48e5,2.71e5,13410,inactive
ATPsynE,DRSC15476,1.15e5,1.27e5,72200,65280,7610,inactive
CG14326,DRSC14805,2.16e5,2.10e5,2.26e5,2.47e5,17265,inactive
SPE,DRSC15135,1.63e5,1.91e5,2.48e5,2.22e5,17035,inactive
Taf5,DRSC07562,87860,92505,98395,91885,5950,inactive
CG2617,DRSC02712,67175,57270,44635,71450,3635,inactive
CG9467,DRSC16498,1.31e5,1.54e5,98525,87940,9850,inactive
CG31493,DRSC12583,1.44e5,1.24e5,81375,88945,10042,inactive
pasi1,DRSC16299,1.83e5,1.81e5,1.75e5,1.69e5,11810,inactive
pasi1,DRSC22385,,,,,,active
CG8202,DRSC16396,80590,87590,53305,48355,5170,inactive
swi2,DRSC06457,36150,40655,32670,47955,3355,inactive
Hsc70-4,DRSC16711,34130,27115,26370,34645,2900,inactive
CG42258,DRSC19741,67855,72165,89115,1.04e5,5380,inactive
CG42258,DRSC19783,10360,7860,9110,6755,3035,inactive
CG11178,DRSC19396,1.69e5,1.71e5,2.50e5,2.07e5,13795,inactive
Rpt4R,DRSC10791,1.56e5,1.50e5,1.73e5,1.50e5,6938,inactive
CG3355,DRSC00598,1.33e5,1.10e5,1.33e5,98435,5840,inactive
yem,DRSC14865,1.43e5,1.46e5,2.28e5,2.17e5,15610,inactive
yem,DRSC17097,80415,86395,1.39e5,1.29e5,10230,inactive
Dbp73D,DRSC11142,1.51e5,1.44e5,1.12e5,1.52e5,12565,inactive
r,DRSC19813,31080,37605,47025,29285,6510,inactive
r,DRSC19814,56210,54960,67180,57850,8755,inactive
NTPase,DRSC00761,1.60e5,1.90e5,1.81e5,1.52e5,19080,inactive
CG42372 + CG30100,DRSC05602,1.66e5,1.66e5,1.95e5,1.90e5,11405,inactive
CG33630,DRSC14546,44625,47405,81290,53040,3295,inactive
Prps,DRSC08994,2.08e5,1.99e5,2.16e5,1.91e5,15032,inactive
Prps,DRSC10707,1.01e5,97180,1.68e5,1.15e5,6605,inactive
Prps,DRSC10708,1.40e5,1.20e5,1.67e5,1.37e5,6030,inactive
sqh,DRSC18837,74725,62220,1.44e5,1.36e5,6000,active
CG13946,DRSC00364,1.10e5,1.01e5,1.06e5,79680,8755,inactive
dpr10,DRSC09015,2.25e5,2.28e5,1.93e5,1.72e5,14360,inactive
dpr10,DRSC09018,2.45e5,1.96e5,2.54e5,2.32e5,11785,inactive
dpr10,DRSC10159,90670,95680,1.58e5,1.36e5,7745,inactive
dpr10,DRSC10160,1.62e5,1.16e5,1.70e5,1.49e5,8025,inactive
CG3328,DRSC04357,1.70e5,1.85e5,1.81e5,1.61e5,13325,inactive
CG13659,DRSC14660,1.15e5,1.17e5,1.78e5,1.74e5,13260,inactive
CG17298,DRSC15221,1.73e5,1.41e5,1.64e5,1.41e5,10478,inactive
SsRbeta,DRSC11290,1.19e5,1.07e5,69255,72250,7975,inactive
dally,DRSC08954,2.15e5,1.73e5,2.23e5,2.04e5,13042,inactive
dally,DRSC11338,1.59e5,1.23e5,1.03e5,50560,10350,inactive
Ugt37D1,DRSC02645,1.80e5,1.85e5,1.97e5,2.21e5,14100,inactive
veil,DRSC06892,98055,89750,1.67e5,1.92e5,8715,inactive
AP-1-2beta,DRSC19336,48930,61575,71525,86810,5192,inactive
mAcon2,DRSC15629,72140,81935,80825,78185,4735,inactive
CG18530,DRSC15341,1.07e5,1.19e5,1.34e5,74460,6582,inactive
Ptp36E,DRSC03021,1.96e5,2.31e5,2.23e5,2.40e5,17878,inactive
CG13457,DRSC10004,1.94e5,1.35e5,2.07e5,1.59e5,10018,inactive
CHKov2,DRSC14262,2.93e5,2.76e5,5.26e5,4.20e5,19738,inactive
CG2909,DRSC18241,1.31e5,1.29e5,1.44e5,1.62e5,10195,inactive
CecB,DRSC16605,1.66e5,1.39e5,1.94e5,1.89e5,12950,inactive
Wnk,DRSC11813,23110,15340,9270,10975,5180,inactive
CG31224,DRSC15272,1.54e5,1.47e5,2.29e5,2.06e5,15100,inactive
CG31224,DRSC16290,2132,950,2860,2345,250,inactive
chic,DRSC03507,2.01e5,1.50e5,2.02e5,1.87e5,9175,inactive
Mcm2,DRSC16734,78090,1.04e5,1.68e5,1.18e5,6378,inactive
CG18335,DRSC06723,89520,1.41e5,1.58e5,1.41e5,9625,inactive
CG15343,DRSC18028,53980,62990,62575,64625,3740,inactive
CG8192,DRSC07101,54355,65280,83865,84200,7965,inactive
Irp-1B,DRSC16720,89565,74580,68830,65720,5475,inactive
Sfxn1-3,DRSC12183,1.44e5,1.17e5,1.10e5,1.06e5,8090,inactive
Snx16,DRSC06984,79030,1.03e5,1.16e5,1.32e5,9360,inactive
Gyc89Db,DRSC15009,2.33e5,2.50e5,3.17e5,3.72e5,19410,inactive
